In publication PMC12008383:
These are yes or no findings as the source states them, for the method shown. Binding can be weak; no strength is given.

Tests used:
[1] = biological target: T1, S. aureus ribosomal protein uL16 (S. aureus (endogenous in NCTC 8325-4)) (UniProt Q2FW13); assay: cryo-EM structure; FusB•Sa70S dataset: 0.5 uM S. aureus 70S, mRNA, E. coli tRNA-fMet, 15 uM FusB added less than 30 s before plunge-freezing; no EF-G, no FA; HEPES polymix; both purified
T1 sequence: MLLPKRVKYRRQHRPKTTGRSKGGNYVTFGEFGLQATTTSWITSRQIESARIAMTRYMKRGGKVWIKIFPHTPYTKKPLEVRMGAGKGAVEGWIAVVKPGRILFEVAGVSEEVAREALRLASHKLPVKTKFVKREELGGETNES

[2] = biological target: T2, S. aureus ribosomal protein uS12 (S. aureus (endogenous in NCTC 8325-4)) (UniProt P0A0H0); assay: as above
T2 sequence: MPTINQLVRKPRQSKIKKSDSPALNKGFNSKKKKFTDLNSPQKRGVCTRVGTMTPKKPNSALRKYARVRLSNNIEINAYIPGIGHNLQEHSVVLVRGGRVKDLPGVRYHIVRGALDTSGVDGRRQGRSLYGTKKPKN

S. aureus FusB (from UniProt Q8GNY5)
binding [1]: binds
binding [2]: binds
